Tested on: xTMEM16A
Assay: NFA inhibition of IP3-induced CaCC currents, two electrode voltage clamp, Axolotl oocytes injected with xTMEM16A cRNA
Assay type: cell-based
Conditions: 30 μM NFA, scatter plot FIG. 4d
Protocol: For experiments involving TMEM16 constructs, capped cRNA was in vitro transcribed from linearized plasmids using the mMessage mMachine kit (Ambion). Female Axolotls and Xenopus laevis were purchased from the Ambystoma Genetic Stock Center and Nasco respectively. Oocytes from these animals were defoliculated by treatment with collagenase prepared as described. Usually 5 ng of cRNA (50 ng for mRNA) was injected into defolliculated oocytes. Oocytes were kept at 17° C. in ND96 solution (96 mM NaCl, 2 mM KCl, 1.8 mM CaCl2, 1 mM MgCl2, 10 mM HEPES [pH 7.4]). Two-electrode voltage-clamp measurements were performed at room temperature 2-4 days after injection using a GeneClamp500 amplifier (Axon Instruments) and pClamp 8.0 software (Axon Instruments). Oocytes used in photolysis experiments were injected with […] of 100 μM caged inositol trisphosphate [myo-inositol 1,4,5-trisphosphate, P4(5)-1-(2-nitrophenyl)ethyl ester] […]
Currents were usually recorded in Ca^2+ free ND96 solution (96 mM NaCl, 2 mM KCl, 3 mM MgCl2, 10 mM HEPES [pH 7.4]). […] The permeability ratios were calculated from shifts in reversal potential ΔErev using the Goldman-Hodgkin-Katz Equation in the form: PX/PCl=(γ·[Cl^−](1)−[Cl^−](2))/[X^−](2) were [Cl^−](1), [Cl^−](2) and [X^−](2) are the external Cl^− and X^− concentration before and after solution exchange. […]

O=C(O)c1cccnc1Nc1cccc(C(F)(F)F)c1 [NFA, niflumic acid]
slope b of regression line, CaCC current duration vs remaining current in the presence of NFA: 30 mV/s
